We go through 20 compounds from PubChem BioAssay AID248 (DTP/NCI, 2004).

The list is a part of this screen's results and no random one: it gathers tests that were run many times, whatever their T/C, doses with no T/C, and many T/C values between a quarter and a half above the control. Further doses and runs are listed elsewhere. T/C gives the treated animals as a percentage of the vehicle group. Some doses have a count of surviving animals in place of a T/C: the source files T/C as zero there, which appears to mark a toxic dose or a test without result, not a measured value. Some doses without a T/C left all or most animals alive at the check, yet need not have been tolerated: survival well below the control is almost never listed, so the zero probably covers shortened survival too. Counts of survivors are from the toxicity check (mostly the fifth day) where no day follows; animals may have died later. Schedules are NCI's codes, read here as Q, the interval in days (D) or hours (H), X, the number of doses. Some schedule codes hold Z or #, which are not explained here. Some doses were run more than once; the results are listed from low to high. Where survival is the endpoint, this PubChem deposit counts one and a half times the control or more as active, and values a quarter to a half above the control carry no call in these data; other NCI protocols may use other cut-offs. Additions like (4×) stand for listed records that agree. Some T/C values carry the count of animals alive at the toxicity check (mostly the fifth day); without a count, all were alive then.

This assay has as its system L1210 leukemia ip in BDF1 mice, survival T/C. Description: NCI In Vivo Anticancer Drug Screen. Data for tumor model L1210 Leukemia (intraperitoneal) in B6D2F1 (BDF1) mice. Particulars: T/C endpoint: mean survival time, higher T/C = longer survival.
Where [1] appears, read: dose: 50.0 mg/kg/injection, schedule: Q01DX009 (ip), vehicle: saline with Tween-80.
Setting [2] is: dose: 100.0 mg/kg/injection, schedule: Q01DX009 (ip), vehicle: saline with Tween-80.
Setting [3] is: dose: 200.0 mg/kg/injection, schedule: Q04DX003 (ip), vehicle: saline with Tween-80.
The mark [4] stands for this setting: dose: 400.0 mg/kg/injection, schedule: Q01DX001 (ip), vehicle: saline with Tween-80.
Where [5] appears, read: dose: 400.0 mg/kg/injection, schedule: Q01DX009 (ip), vehicle: Klucel (hydroxypropylcellulose) (HPC).
Setting [6] is: dose: 100.0 mg/kg/injection, schedule: Q04DX003 (ip), vehicle: saline with Tween-80.

On to `O=C(NC(=S)Nc1ccc(F)cc1)c1cccc([N+](=O)[O-])c1`, for which the T/C reads like this: under setting [1], 88, 104, 105 % of control (2×); under setting [2], 89 [2 of 3 alive] and 96 % of control [5 of 6 alive]. The survivor count is 1 of 3 and 3 of 6 under setting [2]; 0 of 3 and 2 of 6 (dose: 200.0 mg/kg/injection, schedule: Q01DX009 (ip), vehicle: saline with Tween-80); 0 of 6 under setting [3]; 1 of 6 under setting [4]; 0 of 3 and 1 of 6 (dose: 400.0 mg/kg/injection, schedule: Q04DX002 (ip), vehicle: saline with Tween-80).
Take `CN(C)c1ccc2c(c1)C(Br)c1ccccc1-2` (stereo not drawn): the survivor count under setting [5] is 0 of 6.
For `COc1ccc2c3c1OC1C(O)=CCC4[C@H](C2)N(C)CC[C@@]314` (stereo partly drawn), the survivor count (dose: 400.0 mg/kg/injection, schedule: Q01DX001 (ip), vehicle: saline) is given as 1 of 4.
For the compound `CSP(N)(N)=O`, the survivor count is recorded as 0 of 6 (dose: 20.0 mg/kg/injection, schedule: Q01DX001 (ip), vehicle: saline); 0 of 6 (dose: 40.0 mg/kg/injection, schedule: Q01DX001 (ip), vehicle: saline); 0 of 6 (dose: 75.0 mg/kg/injection, schedule: Q01DX001 (ip), vehicle: saline); 0 of 6 (dose: 80.0 mg/kg/injection, schedule: Q01DX001 (ip), vehicle: saline); 0 of 6 (dose: 150.0 mg/kg/injection, schedule: Q01DX001 (ip), vehicle: saline); 0 of 6 (dose: 300.0 mg/kg/injection, schedule: Q01DX001 (ip), vehicle: saline).
Regarding `C=CCNc1ccc(C)cc1`, the survivor count is 1 of 6 (dose: 200.0 mg/kg/injection, schedule: Q01DX009 (ip), vehicle: other) and 3 of 6 (dose: 400.0 mg/kg/injection, schedule: Q04DX003 (ip), vehicle: other).
In the case of `COc1cc(C=Nc2ccc(Oc3ccc(Cl)cc3)cc2)cc(OC)c1OC`, under setting [5], the survivor count was 5 of 6.
As to `C[P+](C)(c1ccccc1)c1ccccc1`, the survivor count (dose: 25.0 mg/kg/injection, schedule: Q04DX003 (ip), vehicle: saline with Tween-80) was 0 of 6; the survivor count (dose: 50.0 mg/kg/injection, schedule: Q04DX003 (ip), vehicle: saline with Tween-80) is listed as 0 of 6; the survivor count under setting [6] was 0 of 6; the survivor count under setting [3] was 0 of 6; the survivor count (dose: 400.0 mg/kg/injection, schedule: Q04DX003 (ip), vehicle: saline with Tween-80) is reported as 0 of 6.
In the case of `CC(=O)CC(=O)NCCCN1CCCCC1`, the survivor count is recorded as 3 of 6 under setting [1], 0 of 6 under setting [6] and 0 of 6 under setting [3].
In the case of `COCCNC(=O)N(CCOC)N=O`, the T/C (dose: 375.0 mg/kg/injection, schedule: Q01DX001 (ip), vehicle: saline) is 145 % of control. Also, the survivor count (dose: 750.0 mg/kg/injection, schedule: Q01DX001 (ip), vehicle: saline) is reported as 1 of 6.
As to `CC(C)(O)CNS(=O)(=O)c1ccc(Br)cc1`, the survivor count under setting [5] is on record as 0 of 6.
On to `CC1CNC(c2ccc(NC(=O)Nc3cc(C(=O)Nc4ccc(C5=NC(C)CN5)cc4)ccc3C(=O)Nc3ccc(C4=NC(C)CN4)cc3)cc2)=N1` (stereo not drawn), for which the survivor count is 4 of 6 (dose: 15.0 mg/kg/injection, schedule: Q01DX Z (ip), vehicle: saline); 0 of 6 (dose: 30.0 mg/kg/injection, schedule: Q01DX Z (ip), vehicle: saline); 0 of 6 (dose: 60.0 mg/kg/injection, schedule: Q01DX Z (ip), vehicle: saline); 0 of 6 (dose: 120.0 mg/kg/injection, schedule: Q01DX Z (ip), vehicle: saline).
With `O=C(O)CSCCSCC(=O)O`, the survivor count was 6 of 6 under setting [2]; 0 of 6 and 2 of 6 (dose: 400.0 mg/kg/injection, schedule: Q01DX009 (ip), vehicle: saline with Tween-80).
On to `COc1ccc(/C=C2\C(=O)OC(=O)\C2=C\c2ccc(OC)c(OC)c2)cc1OC`, for which the survivor count under setting [5] is 2 of 6.
For the compound `O=C(C[n+]1ccc2ccccc2c1)c1ccccc1`, the survivor count reads like this: (dose: 12.5 mg/kg/injection, schedule: Q04DX003 (ip), vehicle: saline) 0 of 6; (dose: 25.0 mg/kg/injection, schedule: Q04DX003 (ip), vehicle: saline) 0 of 6; (dose: 100.0 mg/kg/injection, schedule: Q04DX003 (ip), vehicle: saline) 0 of 6; (dose: 200.0 mg/kg/injection, schedule: Q04DX003 (ip), vehicle: saline) 0 of 6; (dose: 400.0 mg/kg/injection, schedule: Q04DX003 (ip), vehicle: saline) 0 of 6.
Take `CN(C)c1nc(N)c(N)c(N)n1`: the survivor count (dose: 200.0 mg/kg/injection, schedule: Q01DX001 (ip), vehicle: saline with Tween-80) is 1 of 3 and the survivor count under setting [4] is given as 0 of 3.
Take `CCOC(=O)c1cc(C(=O)OCC)c[n+](CCCl)c1`: the survivor count (dose: 128.0 mg/kg/injection, schedule: Q01DX Z (ip), vehicle: other) is on record as 0 of 6.
`CCOC(=O)c1ccc(NCC(=N)N)cc1`: under “dose: 400.0 mg/kg/injection, schedule: Q01DX001 (ip), vehicle: saline sonified”, the survivor count is recorded as 1 of 6.
Turning to `CC(=O)[O][Hg][CH2]C1(C)COC(C)([CH2][Hg][O]C(C)=O)CO1` (stereo not drawn), the survivor count is, setting by setting: (dose: 40.0 mg/kg/injection, schedule: Q01DX001 (ip), vehicle: carboxymethylcellulose (CMC)) 4 of 4; (dose: 100.0 mg/kg/injection, schedule: Q01DX001 (ip), vehicle: carboxymethylcellulose (CMC)) 0 of 4; (dose: 200.0 mg/kg/injection, schedule: Q01DX001 (ip), vehicle: carboxymethylcellulose (CMC)) 0 of 4; (dose: 400.0 mg/kg/injection, schedule: Q01DX001 (ip), vehicle: carboxymethylcellulose (CMC)) 0 of 4.
For `COc1ccccc1NC(=S)N1CCC(CCCC2CCN(C(=S)Nc3ccccc3OC)CC2)CC1`, under setting [5], the survivor count is on record as 6 of 6.
`CS(=O)(=O)SCc1ccc([N+](=O)[O-])cc1`: the survivor count reads like this: (dose: 75.0 mg/kg/injection, schedule: Q01DX001 (ip), vehicle: carboxymethylcellulose (CMC)) 4 of 6; (dose: 150.0 mg/kg/injection, schedule: Q01DX001 (ip), vehicle: carboxymethylcellulose (CMC)) 0 of 6; (dose: 300.0 mg/kg/injection, schedule: Q01DX001 (ip), vehicle: carboxymethylcellulose (CMC)) 1 of 6.
